{
  "source": "PubChem BioAssay AID602313",
  "about": "(National Center for Advancing Translational Sciences (NCATS), 2012)",
  "note": "The whole screen tested about 390,000 compounds, of which about 760 (0.19%) were called active. The shares of active, inactive and inconclusive entries below differ from those in the screen. The call rests on the fitted dose curve; in most records, active means well fitted inhibition curve with a large enough effect; inconclusive means small, poorly fitted or top-dose-only effect; inactive means flat fitted curve, though single readings scatter. A potency beside an inconclusive call is a rough fit, not a confirmed value. Potency means the concentration at half of the fitted maximal effect.",
  "data": [
    {"test": "qHTS for Inhibitors of Vif-A3F Interactions: qHTS; further: nearly all actives have a fitted effect of over 65% in size; on activity, negative = active: % of control where 0% means no effect", "conditions": "HeLa A3F-eYFP + Vif (tagged APOBEC3F with the HIV-1 protein that degrades it), YFP fluorescence increase; series mostly up to 46.1 µM; activity, negative = active: at the top concentration", "in_short": "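Fluorescence increase (Ex 488/Em 500-530) after overnight compound treatment at 37 deg C flags inhibition of Vif-driven A3F-eYFP loss in stable HeLa A3F-eYFP/Vif cells seeded overnight beforehand.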", "values": [
      {"smiles": "Cc1cccc2c1c1ccc3c(c1n2C)C(=O)C=CC3=O", "Potency": "inconclusive: 5.62 µM [inhibitor, single point]"},
      {"smiles": "COc1cccc(N=C2NC(=O)/C(=C/c3cc([N+](=O)[O-])ccc3O)S2)c1", "Potency": "active: 25.1 µM"},
      {"smiles": "COc1ccc(C2Nc3ccccc3C(=O)N2Cc2ccco2)cc1COc1ccc(F)cc1", "note": "(configuration not stated)", "activity, negative = active": "inactive: -20.9%"},
      {"smiles": "O=C(O)c1ccccc1-c1ccc(/C=C/c2cc(C(F)(F)F)[nH]c(=O)n2)o1", "Potency": "inconclusive: 3.55 µM [inhibitor, single point]"},
      {"smiles": "COCCn1c(=S)[nH]c2sc3c(c2c1=O)CCCC3", "activity, negative = active": "inactive: -1.57%"},
      {"smiles": "Cc1ccc2nc(/C(C#N)=C\\c3ccc(OC(=O)c4cccs4)cc3)[nH]c2c1", "Potency": "inconclusive: 20 µM [inhibitor, single point]"},
      {"smiles": "O=C(CSc1nnc(-c2ccccc2Cl)o1)N1CCCc2ccccc21", "activity, negative = active": "inactive: 2.51%"},
      {"smiles": "NC(=O)[C@@H]1[C@@H]2C(=O)N(c3ccc(F)cc3)C(=O)[C@@H]2[C@H]2C=Cc3ccccc3N21", "Potency": "inconclusive: 35.5 µM [inhibitor, single point]"},
      {"smiles": "COc1ccccc1Cn1c(-c2ccco2)nc2nc3ccccc3nc21", "Potency": "inconclusive: 12.6 µM [inhibitor, partial curve, poor fit]"},
      {"smiles": "COc1ccc(CNC(=O)c2cc(=O)c3ccccc3o2)cc1", "Potency": "inconclusive: 35.5 µM [inhibitor, single point]"},
      {"smiles": "CC(=O)NCC1CCCN(Cc2cn(-c3ccccc3F)nc2-c2cc(C)sc2C)C1", "note": "(configuration not stated)", "activity, negative = active": "inactive: -14.9%"},
      {"smiles": "C#CCOCCOCCOCCNc1nc(N2CCN(C(=O)CCCCCCCCCCNC(=O)[C@@H](CCSC)n3cc(CCO)nn3)CC2)nc(N2CCN(C(=O)CCCCCCCCCCNC(=O)[C@H]([C@@H](C)CC)n3cc(CCCCN=C(N)N)nn3)CC2)n1", "activity, negative = active": "inactive: 1.77%"},
      {"smiles": "Cc1ccc(NC(=O)Cn2c(=O)n(Cc3ccccc3)c(=O)c3sc4ccccc4c32)cc1", "Potency": "inconclusive: 4.47 µM [inhibitor, partial curve, poor fit]"},
      {"smiles": "Cc1cc(Cl)ccc1N=c1ssnc1Cl", "activity, negative = active": "inactive: 0.108%"},
      {"smiles": "CCc1ccccc1NC(=O)CSc1nncn2c1cc1oc(C)cc12", "activity, negative = active": "inactive: 1.21%"},
      {"smiles": "Cc1ccc(C(=O)NCC(=O)Nc2ccc(C)c(S(=O)(=O)Nc3ccc(Cl)cc3)c2)s1", "Potency": "inconclusive: 35.5 µM [inhibitor, single point]"},
      {"smiles": "Cc1ccn2cc(C34CC5CC(CC(C5)C3)C4)nc2c1", "Potency": "inconclusive: 35.5 µM [inhibitor, single point]"},
      {"smiles": "Cc1ccc(C)c(Cn2c3ccccc3c3cnn(CC(=O)NC(C)CCc4ccccc4)c(=O)c32)c1", "note": "(configuration not stated)", "Potency": "inconclusive: 14.1 µM [inhibitor, single point]"},
      {"smiles": "CC1=[N+](CC(=O)c2ccccc2)CCn2cccc21", "Potency": "inconclusive: 5.01 µM [inhibitor, single point]"},
      {"smiles": "CCOc1ccc(CNC(=O)c2ccc3c(c2)c(C)c(C)n3Cc2ccccc2)cc1OC", "activity, negative = active": "inactive: -1.98%"},
      {"smiles": "Cc1nn2c3cc(N4CCOCC4)ccc3nc2c2ccccc12", "Potency": "inconclusive: 35.5 µM [inhibitor, partial curve, poor fit]"},
      {"smiles": "O=C(c1cc(-c2ccccc2)nc2ccccc12)N1N=C(C(F)F)CC1(O)C(F)F", "note": "(configuration not stated)", "activity, negative = active": "inactive: -17.8%"},
      {"smiles": "O=C(Nc1ccc(F)cc1)C1CCN(S(=O)(=O)c2cccc3nonc23)CC1", "Potency": "inconclusive: 35.5 µM [inhibitor, single point]"},
      {"smiles": "CCc1ccc(-n2nnc(-c3nc(-c4cccs4)no3)c2N)cc1", "activity, negative = active": "inactive: 1.41%"},
      {"smiles": "CCc1ccc2c(c1)c1nc(C)sc1n2CC(=O)OC", "activity, negative = active": "inactive: -2.78%"},
      {"smiles": "O=C(NCc1cccs1)C1CC(c2ccc(Cl)cc2)=NO1", "note": "(configuration not stated)", "Potency": "inconclusive: 35.5 µM [inhibitor, single point]"},
      {"smiles": "COc1cccc(C2=CC(c3cc(OC)ccc3OC)n3nnnc3N2)c1", "note": "(configuration not stated)", "Potency": "inconclusive: 15.8 µM [inhibitor, single point]"},
      {"smiles": "Cc1ccccc1CN1CCN(Cc2ccccc2C(F)(F)F)CC1", "activity, negative = active": "inactive: -16.4%"},
      {"smiles": "CCN(CC)c1ccc(NC2CC(=O)N(CCc3ccc(OC)cc3)C2=O)cc1", "note": "(configuration not stated)", "Potency": "inconclusive: 2.51 µM [inhibitor, full curve, poor fit]"},
      {"smiles": "Cc1cc(/C=C2\\NC(=S)N(C)C2=O)ccc1N1CCCC1", "Potency": "inconclusive: 3.16 µM [inhibitor, partial curve, poor fit]"},
      {"smiles": "CC(C)C(NC(=O)CCNC(=O)c1ccc(C(C)(C)C)cc1)c1nc2ccccc2[nH]1", "note": "(configuration not stated)", "Potency": "inconclusive: 3.16 µM [inhibitor, partial curve, poor fit]"},
      {"smiles": "CCN(CC)C(=O)C1=C(C)N(Cc2ccc(F)cc2)C(=O)C(CC(=O)NCCCCc2ccccc2)C1", "note": "(configuration not stated)", "Potency": "inconclusive: 4.47 µM [inhibitor, single point]"},
      {"smiles": "Nc1nonc1OCCN1CCN(c2ccc([N+](=O)[O-])c3cccnc23)CC1", "Potency": "inconclusive: 5.62 µM [inhibitor, single point]"},
      {"smiles": "CCN(CC)CCN1C(=O)c2cccc3cc(N)cc(c23)C1=O", "Potency": "inconclusive: 31.6 µM [inhibitor, single point]"},
      {"smiles": "CCOC(=O)C(C)(C)N(Cc1ccc(C)cc1)S(=O)(=O)c1ccc(Cl)c([N+](=O)[O-])c1", "activity, negative = active": "inactive: -4.45%"},
      {"smiles": "CCOc1cc(OCC)cc(C(=O)NC(=S)Nc2cccc(C(F)(F)F)c2)c1", "Potency": "inconclusive: 22.4 µM [inhibitor, single point]"},
      {"smiles": "CNc1c2cccc(C)c2nc2c(C(=O)NCCN(C)C)cccc12", "Potency": "inconclusive: 12.6 µM [inhibitor, partial curve, poor fit]"},
      {"smiles": "Cc1ccc(NC(=O)CN2C(=O)COc3ccc(S(=O)(=O)N4CCCC4)cc32)cc1C", "activity, negative = active": "inactive: 14.5%"},
      {"smiles": "COc1cc(C2C=C(c3cccs3)Nc3ncnn32)cc(OC)c1OC", "note": "(configuration not stated)", "Potency": "inconclusive: 1.78 µM [inhibitor, full curve, poor fit]"},
      {"smiles": "Cc1cc(NC(=O)COc2ccccc2C(N)=O)no1", "Potency": "inconclusive: 6.31 µM [inhibitor, single point]"},
      {"smiles": "CCOC(=O)c1c(NC(=O)c2cc3nc(-c4ccc(OC)cc4)cc(C(F)(F)F)n3n2)sc2c1CCC(C)C2", "note": "(configuration not stated)", "activity, negative = active": "inactive: -2.32%"},
      {"smiles": "CCCN1CCN(C(=O)C2CCN(c3nnc(C)c4c(C)n(-c5ccc(C)cc5)nc34)CC2)CC1", "Potency": "inconclusive: 35.5 µM [inhibitor, partial curve, poor fit]"},
      {"smiles": "CCOc1ccc(CCNC(=O)c2ccc(Nc3nc4ccccc4n4nnnc34)cc2)cc1OCC", "Potency": "inconclusive: 10 µM [inhibitor, partial curve, poor fit]"},
      {"smiles": "Cc1coc2c1c(C)cc1oc(=O)c(CC(=O)NCC(=O)NCC(=O)O)c(C)c12", "Potency": "inconclusive: 1.26 µM [inhibitor, full curve, poor fit]"},
      {"smiles": "CCOC(=O)c1c(N)sc(-c2ccccc2)c1C", "activity, negative = active": "inactive: -9.26%"},
      {"smiles": "Nc1ccc(N2CCCCC2)c2nonc12", "Potency": "inconclusive: 12.6 µM [inhibitor, single point]"},
      {"smiles": "CCCOc1ccc(CSCCNC(=S)Nc2ccccc2)cc1", "Potency": "inconclusive: 35.5 µM [inhibitor, single point]"},
      {"smiles": "Cc1ccc(C2=CC(c3ccccc3F)n3c(nc4ccccc43)N2)cc1C", "note": "(configuration not stated)", "Potency": "inconclusive: 22.4 µM [inhibitor, partial curve, poor fit]"},
      {"smiles": "Cc1ccc2nc3sc(C(=O)NCc4ccco4)c(N)c3cc2c1", "Potency": "inconclusive: 25.1 µM [inhibitor, single point]"},
      {"smiles": "O=C1CCN2C=Nc3cccc4ccc1c2c34", "Potency": "inconclusive: 7.08 µM [inhibitor, partial curve, poor fit]"},
      {"smiles": "O=C(NC1CC1)c1ccc(-n2cccc2)cc1", "Potency": "inconclusive: 6.31 µM [inhibitor, single point]"},
      {"smiles": "COc1ccc(-c2cn(Cc3ccc4ccccc4c3)nn2)cc1", "activity, negative = active": "inactive: -0.248%"},
      {"smiles": "COc1ccccc1C(=O)c1c(C)c(CCC#N)n2ccccc12", "Potency": "inconclusive: 6.31 µM [inhibitor, single point]"},
      {"smiles": "Cc1ccc(/C=C2\\SC(=S)N(C3CCS(=O)(=O)C3)C2=O)cc1", "note": "(configuration not stated)", "Potency": "inconclusive: 15.8 µM [inhibitor, partial curve, poor fit]"},
      {"smiles": "CC(C)CC1N=C2c3ccccc3N=C(SCC(=O)NCCc3ccc(Cl)cc3)N2C1=O", "note": "(configuration not stated)", "activity, negative = active": "inactive: -5.07%"},
      {"smiles": "O=C(CSc1nc2ccccc2c(=O)n1-c1ccc(F)cc1)Nc1ccc(C(=O)O)cc1", "Potency": "inconclusive: 35.5 µM [inhibitor, single point]"},
      {"smiles": "O=C(O)CSCC(=O)Nc1ccccc1SCCS(=O)(=O)c1ccc(Cl)cc1", "Potency": "inconclusive: 2.51 µM [inhibitor, full curve, poor fit]"},
      {"smiles": "CC1Cc2ccccc2N1c1ncnc2c1nnn2Cc1ccccc1", "note": "(configuration not stated)", "activity, negative = active": "inactive: -1.89%"},
      {"smiles": "Cc1cc(O)c(C(=O)/C=C/c2ccc(C(C)C)cc2)c(=O)o1", "activity, negative = active": "inactive: 0.0746%"},
      {"smiles": "CCCCCCSc1cc(-c2nc3ccc(C)cn3c2NCCCC)ccc1OC", "Potency": "inconclusive: 35.5 µM [inhibitor, single point]"},
      {"smiles": "COc1ccc(/C=C/C=C2\\NC(=S)NC2=O)cc1", "Potency": "active: 12.6 µM"},
      {"smiles": "Cc1ccc(Cl)cc1S(=O)(=O)N1CCC(C(=O)NC2CCN(Cc3ccccc3)CC2)CC1", "Potency": "inconclusive: 3.16 µM [inhibitor, partial curve, poor fit]"},
      {"smiles": "COc1cc(/C=C/C(=O)O)cc(S(=O)(=O)N(CC(C)C)CC(C)C)c1OC", "Potency": "inconclusive: 35.5 µM [inhibitor, single point]"},
      {"smiles": "O=[N+]([O-])c1cc(C(F)(F)F)ccc1NCCOc1ccccc1", "activity, negative = active": "inactive: 9.64%"},
      {"smiles": "CN1CCc2c(sc(NC(=O)c3ccc(C(=O)c4ccccc4)cc3)c2C(N)=O)C1", "Potency": "inconclusive: 35.5 µM [inhibitor, single point]"},
      {"smiles": "Cc1ccc(NC(=O)c2sc3nc4c(c(-c5ccco5)c3c2N)CCC4)cc1", "Potency": "inconclusive: 22.4 µM [inhibitor, single point]"},
      {"smiles": "Cc1ccc(NC(=O)Cn2c(=O)n(-c3ccccc3)c(=O)c3ccc(C(=O)NCc4ccc5c(c4)OCO5)cc32)c(C)c1", "Potency": "inconclusive: 14.1 µM [inhibitor, single point]"}
    ]}
  ]
}
